# Hit rate of the full screen: of about 53,000 sequences, about 3,700 (7%) were called active.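 How the source made its calls: active means gene knockdowns whose robust z-score for IL-1 alpha signal is at least 2 or at most -2, so actives lie on both sides; inactive means the rest.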 This is one part of the list.
# Assay: Components of the Cytosolic LPS Sensing Pathway: Gene Identification via Genome-wide siRNA Screen;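 further: robust z of the log signal after scaling to non-targeting control siRNA wells of the plate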
# Conditions: RAW264.7 macrophages, IL-1a HTRF, actives lie on both sides, screened at 100 nM (by protocol), cells primed 5 h with Pam3CSK4 first
# Outline: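 Mouse macrophage line RAW264.7 is transfected with siRNA (100 nM final), grown 48h, primed with TLR ligand Pam3CSK4 5 h and given intracellular LipidA 24 h. IL-1a in supernatant is read by HTRF and viability by luminescence.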
row,Sequence,z-score
1,CCCAGAACUAUUCAACACUTT against Sema4g,inactive: -1.09
2,GCAAGUGUGGUUAAUCUGCTT against Thada,inactive: -0.462
3,GCAUUUUGACCCAAGUGUUTT against Foxq1,inactive: -0.184
4,GGGAACACCCACGAACUCATT against Polrmt,inactive: 1.45
5,AUAAGGAUGUCCAUCUUGCTT against Olfr884,inactive: -1.17
6,GGACCUAAAGAUAAUAAGUTT against Pex3,inactive: -0.481
7,GUGAAGGCCCAUGGCAAGATT against Hbb-b1,inactive: -0.235
8,CCACAGAUUCCAUGAUCCCTT against Gdap1l1,inactive: -0.555
9,GGACUUGGACUGUGAAAACTT against Vgll4,inactive: -1.45
10,GGACUUCCAUUCUUUUUCATT against Klf11,inactive: -0.29
11,GCAUUGUCCAGGUAUCUCATT against B230206H07Rik,inactive: -0.409
12,GGCUGCACAAACAUGGUUCTT against Pard6a,inactive: -0.146
13,GGUGGAACUCGUCAAUAGCTT against Vat1,inactive: 0.269
14,GGUGCUAAAGAUCUGAGAUTT against Ly6g2,inactive: 0.704
15,GGUUCACUACAACAUUGGCTT against Tmtc4,inactive: -0.686
16,CCGCCUUCGGGAAUUCUUUTT against Trim25,inactive: -0.269
17,GCAAUGGUUGGUUCAAUAATT against Lrrc56,inactive: -0.458
18,GGAAAAGAUUGUCUUUGAUTT against Nup133,inactive: -1.11
19,GGUGCUAUUCAUCUGCACGTT against Lonp1,inactive: -1.09
20,CGCCCAAAUUGACUAUUUGTT against Fam214b,inactive: 0.351
21,GGGAAGAAAAUGAAAGGUUTT against Cdk5rap2,inactive: -1.14
22,GGCAGAAGAAGUGGCCAAGTT against Elk3,inactive: 1.82
23,GGAGAAUGAGCAAAUCAAATT against Olfml2b,inactive: 1.54

# A portion from further up, for reference:
row,Sequence,z-score
7,GUGAAGGCCCAUGGCAAGATT against Hbb-b1,inactive: -0.235
8,CCACAGAUUCCAUGAUCCCTT against Gdap1l1,inactive: -0.555

# More results:

row,Sequence,z-score
1,AUACGAUUUUUGUACUGCUTT against Defa4,inactive: 0.305
2,GGAUAAUGGUUUAAAACUCTT against Bmt2,inactive: -1.34
3,CGAGCUUUGAAAGUUUAAUTT against Pcsk2,inactive: 0.591
4,GGUGAAGUGUGAAACAAUGTT against Ube2m,inactive: -1.11
5,GGUUUUUAACUGGAAAACUTT against Ppwd1,inactive: 1.22
6,CCUUCAUGCAACAGCUACUTT against Nckap5l,active: -2.57
7,GCGGUGAUGAGAGAAACCATT against Zfp617,inactive: 0.872
8,GCCCAUUUUAGCUAGAAUCTT against Cd300lg,inactive: -0.0981
9,GGACUCCAAGAUCAUGGUCTT against Pnck,inactive: 1.07
10,GAUCUUUCGACACAUCACCTT against Cyp4a12a,active: -2.02
11,GCAGGCAUUCUGCUCUAUATT against Oxgr1,inactive: 1.01
12,GCAUGCACUUAAGAUUCUATT against Lypd6b,inactive: 0.595
13,GCAAAUAGGAGCUAGCCCUTT against Met,inactive: -1.46
14,CCCAAUUUGUAUCAGAGGGTT against Tmem132c,inactive: -1.19
15,GCGAACUCCUCUUUAGGCATT against Chrng,inactive: -0.594
16,GCUAAGUUCCAAGGCGACCTT against Serpinh1,active: 2.77
17,GCCACAUGCUUCAAUAGUGTT against Lgsn,inactive: -0.899
18,GGAUGUGGAAACCACUAGGTT against Bst2,inactive: 0.343
19,CCAAUUUAAGCAGAUGAGCTT against 4930556L07Rik,inactive: 0.385
20,GCAAAAUGAGAUAGAUCGUTT against Npas4,inactive: 0.389
21,GCCGCUAUGUCACACUAACTT against Tmem169,inactive: 0.44
22,GGAAGACUAGGAGAGACGGTT against Pqlc3,inactive: -0.739
23,GGAAAUAGCUGAAGACAAATT against Tacc3,inactive: 0.961

row,Sequence,z-score
1,CCUUCAUGCAACCAGAGGUTT against Ptp4a3,inactive: -1.06
2,CCUGGUAUAUUACCGCUUCTT against P3h4,inactive: 0.519
3,GGUUCUUUCGACUUCCUGCTT against Ccbe1,inactive: -0.166
4,GGUCAUAGGUACGUAUCCGTT against Siglech,inactive: -0.465
5,GCACAGUGGAUGCAAUCAGTT against Btbd1,inactive: -1.9
6,CCAAUUAGCCUAGGUUUGGTT against Olfr799,inactive: -0.509
7,GGCUUCAUCAUGCUCAUUGTT against Mllt1,inactive: -0.625
8,CCAAAUCGUACUGGAAGACTT against Ttr,inactive: 0.47
9,GGCCAAGAACUCUCUCAUGTT against Ess2,inactive: 0.347
10,CCAAUCUCCUGUUGUUAAATT against Mlf1,inactive: 0.557
11,GGAGAUUGGCUUCCAGAAATT against Slc38a7,inactive: 0.494
12,GGUUCAGAAUUUUUCCUUCTT against Olfr330,inactive: 0.131
13,GGAAAAAGAAGCAAGAGCUTT against Mark3,inactive: 1.2
14,GGGUGAAAGCUGACUUUAATT against Rnh1,inactive: -1.57
15,GCGGAAACAAUCCAUUUAATT against Pcdhgb7,inactive: 1.11
16,GAAAUUAGAACAACUUUGGTT against 3830403N18Rik,inactive: 0.442
17,CCAUCUCUCUAAUGAUUGATT against Txndc5,inactive: -0.604
18,CCUGCAUCACGUUAGUUACTT against Ankrd28,inactive: 0.146
19,GGACUCGUAGCGAUAAUGATT against Slc35g1,inactive: -0.594
20,GGGAAGGGUGAAGAACAGGTT against Ifrd2,inactive: 0.872
21,GCAUGCGUUUUUCCGGUAUTT against Prkcb,inactive: 1.24
22,GGACCCACAACUCCCUUUUTT against Thap7,inactive: -1.34
